Among the data in patent US20120207721A1 are binding values, retold here.

Chains of the proteins cited; added tags and fusions are not shown. Lines headed by an entry give the natural chain unless they say otherwise; changes in a name come on top. A line that says so, or that is headed by a name, gives the form on record, which may keep a tag or linker.
histidine-tagged insulin receptor (R&D systems, no1544-IR/CF) (P06213, form named): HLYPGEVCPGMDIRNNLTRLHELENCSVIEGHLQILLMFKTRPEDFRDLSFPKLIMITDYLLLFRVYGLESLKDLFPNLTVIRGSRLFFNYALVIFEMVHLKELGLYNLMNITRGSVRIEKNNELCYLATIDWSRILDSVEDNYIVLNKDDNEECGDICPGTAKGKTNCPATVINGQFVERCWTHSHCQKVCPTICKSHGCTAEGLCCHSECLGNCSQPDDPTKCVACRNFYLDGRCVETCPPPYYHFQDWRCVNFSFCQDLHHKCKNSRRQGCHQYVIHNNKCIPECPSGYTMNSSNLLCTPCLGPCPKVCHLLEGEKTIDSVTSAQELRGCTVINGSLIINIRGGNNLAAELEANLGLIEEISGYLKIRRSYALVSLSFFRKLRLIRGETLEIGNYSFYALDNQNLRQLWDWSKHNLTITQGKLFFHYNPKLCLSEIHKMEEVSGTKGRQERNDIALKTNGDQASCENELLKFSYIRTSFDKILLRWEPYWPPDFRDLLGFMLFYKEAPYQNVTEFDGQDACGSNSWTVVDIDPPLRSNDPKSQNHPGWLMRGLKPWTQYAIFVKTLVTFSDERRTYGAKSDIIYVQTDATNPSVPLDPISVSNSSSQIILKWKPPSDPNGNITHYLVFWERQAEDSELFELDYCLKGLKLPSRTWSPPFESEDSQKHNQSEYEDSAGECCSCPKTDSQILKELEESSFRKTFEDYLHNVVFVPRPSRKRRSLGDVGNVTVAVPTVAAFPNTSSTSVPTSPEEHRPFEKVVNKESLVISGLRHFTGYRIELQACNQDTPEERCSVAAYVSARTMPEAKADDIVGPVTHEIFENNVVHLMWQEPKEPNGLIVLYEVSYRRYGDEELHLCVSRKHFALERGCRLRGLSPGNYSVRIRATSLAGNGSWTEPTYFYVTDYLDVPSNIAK

These are yes or no findings as the source states them, for the method shown. Some results given as binding are weak or reduced against the parent protein; the word gives no strength.

The assay has as its target T1, human SorCS1-a (overlapping peptides of the entire primary sequence on a SPOT membrane) (human) (UniProt Q8WY21).
T1 sequence: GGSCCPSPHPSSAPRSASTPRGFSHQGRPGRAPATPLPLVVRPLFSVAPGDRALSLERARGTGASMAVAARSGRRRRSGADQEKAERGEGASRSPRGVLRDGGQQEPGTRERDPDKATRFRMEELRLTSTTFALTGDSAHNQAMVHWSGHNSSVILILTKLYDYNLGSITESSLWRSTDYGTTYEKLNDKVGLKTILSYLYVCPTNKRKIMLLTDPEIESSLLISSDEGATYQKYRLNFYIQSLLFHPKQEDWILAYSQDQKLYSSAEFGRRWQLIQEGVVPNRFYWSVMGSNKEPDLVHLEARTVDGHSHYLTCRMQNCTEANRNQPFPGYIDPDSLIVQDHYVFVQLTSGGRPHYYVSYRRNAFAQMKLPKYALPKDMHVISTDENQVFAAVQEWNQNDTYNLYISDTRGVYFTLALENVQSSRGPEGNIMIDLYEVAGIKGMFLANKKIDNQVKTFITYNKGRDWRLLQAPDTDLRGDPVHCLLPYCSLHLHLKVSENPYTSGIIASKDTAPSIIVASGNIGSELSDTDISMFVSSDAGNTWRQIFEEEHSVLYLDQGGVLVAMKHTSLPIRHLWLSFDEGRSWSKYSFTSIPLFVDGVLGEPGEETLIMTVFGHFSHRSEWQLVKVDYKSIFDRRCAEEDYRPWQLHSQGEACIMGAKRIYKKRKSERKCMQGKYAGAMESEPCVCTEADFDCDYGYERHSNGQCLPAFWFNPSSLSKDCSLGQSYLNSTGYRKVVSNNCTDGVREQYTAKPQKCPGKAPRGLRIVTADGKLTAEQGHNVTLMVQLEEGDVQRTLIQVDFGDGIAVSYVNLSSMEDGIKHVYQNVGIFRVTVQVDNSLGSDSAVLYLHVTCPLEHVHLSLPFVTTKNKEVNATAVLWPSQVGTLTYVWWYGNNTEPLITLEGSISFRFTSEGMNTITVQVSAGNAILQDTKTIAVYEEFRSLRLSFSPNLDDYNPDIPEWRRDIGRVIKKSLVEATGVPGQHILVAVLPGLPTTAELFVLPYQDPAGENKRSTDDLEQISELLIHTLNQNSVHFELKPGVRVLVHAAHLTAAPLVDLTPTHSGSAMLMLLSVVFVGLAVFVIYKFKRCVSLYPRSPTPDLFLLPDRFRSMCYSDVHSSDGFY
Nature of the assay: SPOT peptide array of SorCS1-a probed with his-tagged IR.

Regarding “histidine-tagged insulin receptor (R&D systems, no1544-IR/CF) (from UniProt P06213 28-944)”, the binding result is given as “binds”.
